# Assay results taken from the supplement of paper PMC8728848.
# Some of the results follow.
# B1: SUN4P (Saccharomyces cerevisiae), P53616 (protein)
# chain: MGSSHHHHHHSSGLVPRGSHNGSIYGDLADFSGPYEKFEDGTIPCGQFPSGQGVIPISWLDEGGWSGVENTDTSTGGSCKEGSYCSYACQPGMSKTQWPSDQPSDGRSIGGLLCKDGYLYRSNTDTDYLCEWGVDAAYVVSELSNDVAICLTDYPGTENMVIPTYVQAGDSLPLTVVDQDTYYTWQGLKTSAQYYVNNAGISVEDACVWGSSSSGVGNWAPLNFGAGSSDGVAYLSLIPNPNNGNALNFNVKIVAADDSSTVNGECIYENGSFSGGSDGCTVSVTAGKAKFVLYN
# Key:
# Test in all cases: glycan array binding signal (z-score within array); higher = stronger binding
# Settings in all cases: glycan notation: IUPAC condensed, linker removed; mutation: R276L
# [1] = biological target: Gal(b1-3)GlcNAc(b1-2)Man(a1-3)[Gal(b1-3)GlcNAc(b1-2)Man(a1-6)]Man(b1-4)GlcNAc(b1-4)GlcNAc
# Outline: (§1)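 The Consortium for Functional Glycomics database supplied 3228 glycan arrays, of which those lacking an available protein sequence were dropped. The binding signal, a within-array Z-score, was averaged across arrays of the same protein sequence and across linkers. Negative scores can be read as non-binding.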
# [2] = biological target: Gal(b1-3)GlcNAc(b1-2)Man(a1-3)[Gal(b1-3)GlcNAc(b1-2)Man(a1-6)]Man(b1-4)GlcNAc(b1-4)[Fuc(a1-6)]GlcNAc
# Outline: as §1
# [3] = biological target: Gal(b1-3)GlcNAc(b1-2)Man(a1-3)[GlcNAc(b1-4)][Gal(b1-3)GlcNAc(b1-2)Man(a1-6)]Man(b1-4)GlcNAc(b1-4)GlcNAc
# Outline: as §1
# [4] = biological target: Gal(b1-3)GlcNAc(b1-2)[Gal(b1-3)GlcNAc(b1-6)]Man(a1-6)[Gal(b1-3)GlcNAc(b1-2)Man(a1-3)]Man(b1-4)GlcNAc(b1-4)GlcNAc
# Outline: as §1
# [5] = biological target: Gal(b1-3)GlcNAc(b1-3)Gal(b1-3)GlcNAc
# Outline: as §1
# [6] = biological target: Gal(b1-3)GlcNAc(b1-3)Gal(b1-4)Glc
# Outline: as §1
# [7] = biological target: Gal(b1-3)GlcNAc(b1-3)Gal(b1-4)GlcNAc
# Outline: as §1
# [8] = biological target: Gal(b1-3)GlcNAc(b1-3)Gal(b1-4)GlcNAc(b1-2)Man(a1-3)[Gal(b1-3)GlcNAc(b1-3)Gal(b1-4)GlcNAc(b1-2)Man(a1-6)]Man(b1-4)GlcNAc(b1-4)GlcNAc
# Outline: as §1
# [9] = biological target: Gal(b1-3)GlcNAc(b1-3)Gal(b1-4)GlcNAc(b1-2)[Gal(b1-3)GlcNAc(b1-3)Gal(b1-4)GlcNAc(b1-6)]Man(a1-6)[Gal(b1-3)GlcNAc(b1-3)Gal(b1-4)GlcNAc(b1-2)Man(a1-3)]Man(b1-4)GlcNAc(b1-4)[Fuc(a1-6)]GlcNAc
# Outline: as §1
# [10] = biological target: Gal(b1-3)GlcNAc(b1-3)Gal(b1-4)GlcNAc(b1-3)Gal(b1-4)GlcNAc(b1-2)[Gal(b1-3)GlcNAc(b1-3)Gal(b1-4)GlcNAc(b1-3)Gal(b1-4)GlcNAc(b1-6)]Man(a1-6)[Gal(b1-3)GlcNAc(b1-3)Gal(b1-4)GlcNAc(b1-3)Gal(b1-4)GlcNAc(b1-2)Man(a1-3)]Man(b1-4)GlcNAc(b1-4)[Fuc(a1-6)]GlcNAc
# Outline: as §1
# [11] = biological target: Gal(b1-3)GlcNAc(b1-3)Gal(b1-4)GlcNAc(b1-6)[Gal(b1-3)GlcNAc(b1-3)]Gal(b1-4)Glc
# Outline: as §1
# [12] = biological target: Gal(b1-3)GlcNAc(b1-3)Gal(b1-4)[Fuc(a1-3)]GlcNAc
# Outline: as §1
# [13] = biological target: Gal(b1-3)GlcNAc(b1-3)Gal(b1-4)[Fuc(a1-3)]GlcNAc(b1-6)[Gal(b1-3)GlcNAc(b1-3)]Gal(b1-4)Glc
# Outline: as §1
# [14] = biological target: Gal(b1-3)GlcNAc(b1-3)GalNAc
# Outline: as §1
# [15] = biological target: Gal(b1-3)GlcNAc(b1-6)Gal(b1-4)GlcNAc
# Outline: as §1
# [16] = biological target: Gal(b1-3)GlcNAc(b1-6)GalNAc
# Outline: as §1
# [17] = biological target: Gal(b1-3)GlcNAc(b1-6)[Gal(b1-3)]GalNAc
# Outline: as §1
# Gal(b1-3)GlcNAc6S = biological target: Gal(b1-3)GlcNAc6S
# Outline: as §1
# [18] = biological target: Gal(b1-3)[Fuc(a1-4)]GlcNAc
# Outline: as §1
# [19] = biological target: Gal(b1-3)[Fuc(a1-4)]GlcNAc(b1-2)Man
# Outline: as §1
# [20] = biological target: Gal(b1-3)[Fuc(a1-4)]GlcNAc(b1-2)Man(a1-3)[Gal(b1-3)[Fuc(a1-4)]GlcNAc(b1-2)Man(a1-6)]Man(b1-4)GlcNAc(b1-4)[Fuc(a1-6)]GlcNAc
# Outline: as §1
# [21] = biological target: Gal(b1-3)[Fuc(a1-4)]GlcNAc(b1-3)Gal(b1-3)[Fuc(a1-4)]GlcNAc
# Outline: as §1
# [22] = biological target: Gal(b1-3)[Fuc(a1-4)]GlcNAc(b1-3)Gal(b1-4)[Fuc(a1-3)]GlcNAc
# Outline: as §1
# [23] = biological target: Gal(b1-3)[Fuc(a1-4)]GlcNAc(b1-6)GalNAc
# Outline: as §1
# [24] = biological target: Gal(b1-3)[GlcNAc(b1-6)]GalNAc
# Outline: as §1
# [25] = biological target: Gal(b1-3)[Neu5Ac(a2-6)]GalNAc
# Outline: as §1
# [26] = biological target: Gal(b1-3)[Neu5Ac(a2-6)]GlcNAc(b1-4)Gal(b1-4)Glc
# Outline: as §1
# [27] = biological target: Gal(b1-3)[Neu5Ac(b2-6)]GalNAc
# Outline: as §1
# Gal(b1-4)Gal = biological target: Gal(b1-4)Gal
# Outline: as §1
# [28] = biological target: Gal(b1-4)GalNAc(a1-3)[Fuc(a1-2)]Gal(b1-4)GlcNAc
# Outline: as §1
# [29] = biological target: Gal(b1-4)GalNAc(b1-3)[Fuc(a1-2)]Gal(b1-4)GlcNAc
# Outline: as §1
# Gal(b1-4)Glc = biological target: Gal(b1-4)Glc
# Outline: as §1
# Gal(b1-4)Glc6S = biological target: Gal(b1-4)Glc6S
# Outline: as §1
# Gal(b1-4)GlcNAc = biological target: Gal(b1-4)GlcNAc
# Outline: as §1
# [30] = biological target: Gal(b1-4)GlcNAc(a1-6)Gal(b1-4)GlcNAc
# Outline: as §1
# Gal(b1-4)GlcNAc(b1-2)Man = biological target: Gal(b1-4)GlcNAc(b1-2)Man
# Outline: as §1
# [31] = biological target: Gal(b1-4)GlcNAc(b1-2)Man(a1-3)Man(b1-4)GlcNAc(b1-4)GlcNAc
# Outline: as §1
# [32] = biological target: Gal(b1-4)GlcNAc(b1-2)Man(a1-3)[Gal(b1-4)GlcNAc(b1-2)Man(a1-6)]Man(b1-4)GlcNAc(b1-4)GlcNAc
# Outline: as §1
# [33] = biological target: Gal(b1-4)GlcNAc(b1-2)Man(a1-3)[Gal(b1-4)GlcNAc(b1-2)Man(a1-6)]Man(b1-4)GlcNAc(b1-4)[Fuc(a1-6)]GlcNAc
# Outline: as §1
# [34] = biological target: Gal(b1-4)GlcNAc(b1-2)Man(a1-3)[Gal(b1-4)GlcNAc(b1-2)Man(a1-6)][Gal(b1-4)GlcNAc(b1-4)]Man(b1-4)GlcNAc(b1-4)[Fuc(a1-6)]GlcNAc
# Outline: as §1
# [35] = biological target: Gal(b1-4)GlcNAc(b1-2)Man(a1-3)[Gal(b1-4)GlcNAc(b1-2)Man(a1-6)][GlcNAc(b1-4)]Man(b1-4)GlcNAc(b1-4)[Fuc(a1-6)]GlcNAc
# Outline: as §1
# [36] = biological target: Gal(b1-4)GlcNAc(b1-2)Man(a1-3)[GlcNAc(b1-2)Man(a1-6)]Man(b1-4)GlcNAc(b1-4)GlcNAc
# Outline: as §1
# [37] = biological target: Gal(b1-4)GlcNAc(b1-2)Man(a1-3)[GlcNAc(b1-4)][Gal(b1-4)GlcNAc(b1-2)Man(a1-6)]Man(b1-4)GlcNAc(b1-4)GlcNAc
# Outline: as §1
# [38] = biological target: Gal(b1-4)GlcNAc(b1-2)Man(a1-3)[Man(a1-6)]Man(b1-4)GlcNAc(b1-4)GlcNAc
# Outline: as §1
# [39] = biological target: Gal(b1-4)GlcNAc(b1-2)Man(a1-6)Man(b1-4)GlcNAc(b1-4)GlcNAc
# Outline: as §1
binder,measurement,setting,value
B1,glycan array binding signal (z-score),[1],-0.366
same,glycan array binding signal (z-score),[2],0.115
same,glycan array binding signal (z-score),[3],-0.233
same,glycan array binding signal (z-score),[4],0.279
same,glycan array binding signal (z-score),[5],-0.507
same,glycan array binding signal (z-score),[6],-0.852
same,glycan array binding signal (z-score),[7],-0.963
same,glycan array binding signal (z-score),[8],1.37
same,glycan array binding signal (z-score),[9],2.11
same,glycan array binding signal (z-score),[10],-0.881
same,glycan array binding signal (z-score),[11],0.725
same,glycan array binding signal (z-score),[12],-0.376
same,glycan array binding signal (z-score),[13],-0.767
same,glycan array binding signal (z-score),[14],-1.33
same,glycan array binding signal (z-score),[15],1.77
same,glycan array binding signal (z-score),[16],0.933
same,glycan array binding signal (z-score),[17],-0.199
same,glycan array binding signal (z-score),Gal(b1-3)GlcNAc6S,-0.907
same,glycan array binding signal (z-score),[18],-0.04
same,glycan array binding signal (z-score),[19],1.06
same,glycan array binding signal (z-score),[20],1.72
same,glycan array binding signal (z-score),[21],-0.128
same,glycan array binding signal (z-score),[22],-1.12
same,glycan array binding signal (z-score),[23],-0.428
same,glycan array binding signal (z-score),[24],1.15
same,glycan array binding signal (z-score),[25],2.79
same,glycan array binding signal (z-score),[26],-0.54
same,glycan array binding signal (z-score),[27],0.439
same,glycan array binding signal (z-score),Gal(b1-4)Gal,-1.58
same,glycan array binding signal (z-score),[28],-1.06
same,glycan array binding signal (z-score),[29],-0.733
same,glycan array binding signal (z-score),Gal(b1-4)Glc,-0.491
same,glycan array binding signal (z-score),Gal(b1-4)Glc6S,-0.263
same,glycan array binding signal (z-score),Gal(b1-4)GlcNAc,-0.158
same,glycan array binding signal (z-score),[30],0.129
same,glycan array binding signal (z-score),Gal(b1-4)GlcNAc(b1-2)Man,0.676
same,glycan array binding signal (z-score),[31],-0.274
same,glycan array binding signal (z-score),[32],0.069
same,glycan array binding signal (z-score),[33],-0.512
same,glycan array binding signal (z-score),[34],-0.486
same,glycan array binding signal (z-score),[35],-0.864
same,glycan array binding signal (z-score),[36],-0.054
same,glycan array binding signal (z-score),[37],0.103
same,glycan array binding signal (z-score),[38],-0.201
same,glycan array binding signal (z-score),[39],0.904

# Rewritten tab-delimited: part of the list above.
binder	measurement	setting	value
B1	glycan array binding signal (z-score)	[28]	-1.06
same	glycan array binding signal (z-score)	[29]	-0.733
same	glycan array binding signal (z-score)	Gal(b1-4)Glc	-0.491
same	glycan array binding signal (z-score)	Gal(b1-4)Glc6S	-0.263
